Laboratory results: PubChem BioAssay AID686937 (Drosophila RNAi Screening Center, 2013)
In all, the deposit lists about 23,000 reagents; this is a random part of those with a known target gene and a result. 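Reduced-secretion tags in replicate 1 do not always agree with the z-scores; no criterion for assigning the tags was given.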 Reagents against one gene are numbered here. Names joined by + are all predicted targets of the reagent. Not given: the amount of reagent.

Screen: 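Genes in the fly needed for secretion of protein constitutively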 (primary screen)
System: Drosophila S2 cells expressing secreted horseradish peroxidase
Knock-down reagent: long dsRNA against Drosophila genes
Time to read-out: about 5.5 days (5 days dsRNA, then 12 h reporter induction)
Treatment: reporter expression induced after 5 days of dsRNA, read 12 h later; inducer not stated
Detection: 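Chemiluminescent measurement of peroxidase in the medium 12 h after reporter induction, following 5 days of dsRNA, given as a z-score per plate; higher means more secretion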
Scale: z-score: higher = more reporter secreted into medium

predicted target,reagent,"z-score, replicate 1","z-score, replicate 2","z-score, replicate 3","z-score, replicate 4","phenotype, replicate 1"
Uxs,1,-1.3,-1.36,,,
CG12470,1,0.4,0.33,,,
Adsl,1,0.17,0.35,,,
CG17059,1,-0.03,0.03,,,
Dnaaf5,1,-0.64,0.22,,,
ken,1,-1.54,-1.75,,,reduced secretion
CG17896,1,0.08,0.11,,,
Cpsf100,1,-1.49,-0.89,,,
CG31677,1,0.05,-0.06,,,
mRpS2,1,-0.23,0.19,,,
beta-Man,1,0.27,0.27,,,
beta-Man,2,0.35,0.42,,,
Pepck2,1,0.51,-0.05,,,
CG11593,1,0.41,0.33,,,
Rb97D,1,0.51,0.54,,,
CG13995,1,1.11,0.3,0.41,0.04,
CG13995,2,0.27,0.22,,,
CG13995,3,0.38,0.4,,,
Sema2a,1,0.05,0.27,,,
lky,1,0.2,0.17,,,
CG30026,1,0.99,0.47,,,
mRpS11,1,-0.31,-0.93,,,
CG31816,1,0.22,0.11,,,
yip3,1,0.26,0.29,,,
Rpn10,1,-1.56,-0.49,,,reduced secretion
asRNA:CR43433 + Rbp6,1,0.68,0.54,,,
CG14455,1,0.33,0.05,,,
CG13334,1,0.03,0.32,,,
Nup54,1,-0.26,-0.44,,,
Uba2,1,0.32,0.21,,,
CG14174,1,0.17,0.17,,,
CG1142,1,0.2,0.06,,,
Fhos,1,0.11,-0.03,,,
Fhos,2,0.18,0.18,,,
Fhos,3,-0.04,0.16,,,
Fhos,4,0.42,0.3,,,
CG1275,1,0.29,0.42,,,
CoRest,1,0.5,0.56,,,
CoRest,2,0.83,-0.56,,,
CoRest,3,-0.8,-1.65,,,reduced secretion
spn-F,1,-0.24,-1.25,,,
asRNA:CR43426,1,0.32,-0.03,,,
NimA,1,-0.37,0.52,,,
NimA,2,-0.33,-0.03,,,
Listericin,1,0.33,0.28,,,
Sox21b,1,0.18,0.5,0.47,0.4,reduced secretion
Sox21b,2,-0.36,0.03,,,
Sox21b,3,1.42,0.78,,,
CG7101,1,0.18,0.1,,,
CG7101,2,-0.34,-0.28,,,

Part of the list above, reformatted:
beta-Man #1: z-score, replicate 1 = 0.27; z-score, replicate 2 = 0.27
beta-Man #2: z-score, replicate 1 = 0.35; z-score, replicate 2 = 0.42
Pepck2: z-score, replicate 1 = 0.51; z-score, replicate 2 = -0.05
CG11593: z-score, replicate 1 = 0.41; z-score, replicate 2 = 0.33
Rb97D: z-score, replicate 1 = 0.51; z-score, replicate 2 = 0.54
CG13995 #1: z-score, replicate 1 = 1.11; z-score, replicate 2 = 0.3; z-score, replicate 3 = 0.41; z-score, replicate 4 = 0.04

The listing continues.
predicted target,reagent,"z-score, replicate 1","z-score, replicate 2","z-score, replicate 3","z-score, replicate 4","phenotype, replicate 1"
CG8272,1,0.48,0.42,,,
CCKLR-17D1,1,-0.21,0.5,,,
CCKLR-17D1,2,0.61,0.39,,,
CCKLR-17D1,3,0.25,0.35,,,
CG31373,1,0.3,-1.14,,,
MED4,1,-5.5,-4.23,,,reduced secretion
Tat,1,0.28,0.35,,,
MAN1,1,0.23,0.23,,,
PIG-Wa,1,0.32,0.27,,,
CG17636,1,0.42,0.22,,,
CG10132,1,0.28,0.27,,,
hbt,1,0.01,0.07,,,
hbt,2,0.27,0.32,,,
CG7071 + Muted,1,0.37,0.29,,,
CG13305,1,-0.71,-1.49,,,
CG17598,1,0.39,0.34,,,
loaf,1,0.28,0.09,,,
Abd-B,1,-0.04,0.03,,,
Abd-B,2,-0.22,0.32,,,
CG14024,1,0.36,0.14,,,
CG14024,2,0.13,0.12,,,
csul,1,0.25,0.3,,,
bsk,1,0.51,0.33,,,
RpL22,1,-0.91,-0.49,-0.56,-0.82,reduced secretion
RpL22,2,-2.29,-2.18,,,reduced secretion
CG11588,1,0.22,0.41,,,
CG11588,2,0.23,0.49,,,
Rh6,1,0.46,0.37,,,
CG13060,1,-0.09,0.05,,,
witty,1,0.12,0.3,,,
witty,2,-0.26,0.01,,,
dsx-c73A,1,0.02,0.13,,,
dsx-c73A,2,0.48,0.38,,,
dsx-c73A,3,0.39,0.31,,,
